{"source": "paper PMC4583457", "binders": {"B1": {"name": "NFasc186, endogenous in adult mouse sciatic nerve (protein, UniProt Q810U3 25-1240)", "chain": "IEIPMDPSIQNELTQPPTITKQSVKDHIVDPRDNILIECEAKGNPAPSFHWTRNSRFFNIAKDPRVSMRRRSGTLVIDFRSGGRPEEYEGEYQCFARNKFGTALSNRIRLQVSKSPLWPKENLDPVVVQEGAPLTLQCNPPPGLPSPVIFWMSSSMEPITQDKRVSQGHNGDLYFSNVMLQDMQTDYSCNARFHFTHTIQQKNPFTLKVLTTRGVAERTPSFMYPQGTSSSQMVLRGMDLLLECIASGVPTPDIAWYKKGGDLPSNKAKFENFNKALRITNVSEEDSGEYFCLASNKMGSIRHTISVRVKAAPYWLDEPKNLILAPGEDGRLVCRANGNPKPTVQWMVNGEPLQSAPPNPNREVAGDTIIFRDTQISSRAVYQCNTSNEHGYLLANAFVSVLDVPPRMLSARNQLIRVILYNRTRLDCPFFGSPIPTLRWFKNGQGSNLDGGNYHVYENGSLEIKMIRKEDQGIYTCVATNILGKAENQVRLEVKDPTRIYRMPEDQVAKRGTTVQLECRVKHDPSLKLTVSWLKDDEPLYIGNRMKKEDDSLTIFGVAERDQGSYTCMASTELDQDLAKAYLTVLADQATPTNRLAALPKGRPDRPRDLELTDLAERSVRLTWIPGDDNNSPITDYVVQFEEDQFQPGVWHDHSRFPGSVNSAVLHLSPYVNYQFRVIAVNEVGSSHPSLPSERYRTSGAPPESNPSDVKGEGTRKNNMEITWTPMNATSAFGPNLRYIVKWRRRETRETWNNVTVWGSRYVVGQTPVYVPYEIRVQAENDFGKGPEPDTIIGYSGEDLPSAPRRFRVRQPNLETINLEWDHPEHPNGILIGYILRYVPFNGTKLGKQMVENFSPNQTKFSVQRADPVSRYRFSLSARTQVGSGEAATEESPAPPNEATPTAAPPTLPPTTVGTTGLVSSTDATALAATSEATTVPIIPTVVPTTVATTIATTTTTTAATTTTTTTESPPTTTAGTKIHETAPDEQSIWNVTVLPNSKWANITWKHNFRPGTDFVVEYIDSNHTKKTVPVKAQAQPIQLTDLFPGMTYTLRVYSRDNEGISSTVITFMTSTAYTNNQADIATQGWFIGLMCAIALLVLILLIVCFIKRSRGGKYPVREKKDVPLGPEDPKEEDGSFDYSDEDNKPLQGSQTSLDGTIKQQESDDSLVDYGEGGEGQFNEDGSFIGQYTVKKDKEETEGNESSEATSPVNAIYSLA"}}, "key": {"[1]": {"molecular_target": "T1, myelin protein zero (P0), endogenous in adult mouse sciatic nerve (mouse (endogenous in sciatic nerve)) (UniProt P27573)", "T1 sequence": "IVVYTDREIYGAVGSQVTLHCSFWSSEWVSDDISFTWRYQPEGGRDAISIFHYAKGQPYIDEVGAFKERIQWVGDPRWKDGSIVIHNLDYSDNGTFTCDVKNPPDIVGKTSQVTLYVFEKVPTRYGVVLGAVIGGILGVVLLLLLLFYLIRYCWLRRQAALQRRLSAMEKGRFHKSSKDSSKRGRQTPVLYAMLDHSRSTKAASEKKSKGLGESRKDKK", "assay": "co-IP; as a2, but from sciatic nerve lysates of HDAC1/2 dKO mice at 8 wk post-tamoxifen (P0 levels reduced)"}, "[2]": {"molecular_target": "T1, myelin protein zero (P0), endogenous in adult mouse sciatic nerve (mouse (endogenous in sciatic nerve))", "assay": "co-IP; IP with 2 ug chicken anti-P0 antibody on PrecipHen beads from adult control littermate mouse sciatic nerve lysates (8 wk post-tamoxifen); blot with pan-NFasc antibody; chicken IgY as negative control"}}, "note": "Results are given in words; binding and its absence hold for the method and conditions named. Binding seen in cells or lysates may run through a third protein. Some results given as binding are weak or reduced against the parent protein; the word gives no strength."}
{"binder": "B1", "values": [{"measurement": "binding", "setting": "[1]", "result": "binds weakly"}, {"measurement": "binding", "setting": "[2]", "result": "binds"}]}
